These are yes or no findings as the source states them, for the method shown. In cells and extracts the contact can be indirect. A yes stands for co-enrichment or nearness to the bait. Other partners may have been found. For part of these data: A no says only that the protein was not detected with the bait.
Tests used:
Test in all cases: affinity purification with mass spectrometry; bioGFP-tagged bait co-transfected with BirA in N2A cells; captured from lysate with magnetic streptavidin beads; gel, LC-MS/MS, MaxQuant, PERSEUS, Welch's t test with FDR 0.01 and S0 1.5, triplicate, against GFP or wild type
[1] = target: bioGFP-tagged TDP-43 M337V (UniProt Q13148)
[2] = target: bioGFP-tagged TDP-43 wild-type (UniProt Q13148)
[3] = target: bioGFP-tagged OPTN wild-type (UniProt Q96CV9)
bioGFP-tagged C9orf72 = bioGFP-tagged C9orf72 (UniProt Q96LT7)
[4] = target: bioGFP-tagged FUS R521C (human) (UniProt P35637)
[5] = target: bioGFP-tagged FUS wild-type (human) (UniProt P35637)
bioGFP-tagged OPTN E478G = bioGFP-tagged OPTN E478G (UniProt Q96CV9)
[6] = target: bioGFP-tagged UBQLN2 wild-type (UniProt Q9UHD9)

Protein sequences, listed by entry. Tags and fused reporters are not part of them. Lines headed by an entry give the natural chain unless they say otherwise; changes in a name come on top.
UniProt Q96CV9: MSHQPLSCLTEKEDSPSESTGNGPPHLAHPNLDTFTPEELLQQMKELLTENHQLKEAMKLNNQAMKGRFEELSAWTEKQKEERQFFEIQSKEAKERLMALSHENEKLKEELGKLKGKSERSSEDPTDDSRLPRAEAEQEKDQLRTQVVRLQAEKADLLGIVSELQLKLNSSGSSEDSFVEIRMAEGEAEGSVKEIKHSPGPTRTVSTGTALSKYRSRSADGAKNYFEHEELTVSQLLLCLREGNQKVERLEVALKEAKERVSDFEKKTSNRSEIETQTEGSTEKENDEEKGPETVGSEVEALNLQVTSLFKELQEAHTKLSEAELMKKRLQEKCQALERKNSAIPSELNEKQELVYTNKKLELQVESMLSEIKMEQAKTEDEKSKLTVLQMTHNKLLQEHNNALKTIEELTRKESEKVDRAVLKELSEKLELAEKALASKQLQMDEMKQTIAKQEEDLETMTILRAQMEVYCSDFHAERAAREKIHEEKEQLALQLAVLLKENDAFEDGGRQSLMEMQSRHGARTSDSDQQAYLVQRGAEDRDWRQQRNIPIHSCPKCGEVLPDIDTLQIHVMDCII
UniProt Q96LT7: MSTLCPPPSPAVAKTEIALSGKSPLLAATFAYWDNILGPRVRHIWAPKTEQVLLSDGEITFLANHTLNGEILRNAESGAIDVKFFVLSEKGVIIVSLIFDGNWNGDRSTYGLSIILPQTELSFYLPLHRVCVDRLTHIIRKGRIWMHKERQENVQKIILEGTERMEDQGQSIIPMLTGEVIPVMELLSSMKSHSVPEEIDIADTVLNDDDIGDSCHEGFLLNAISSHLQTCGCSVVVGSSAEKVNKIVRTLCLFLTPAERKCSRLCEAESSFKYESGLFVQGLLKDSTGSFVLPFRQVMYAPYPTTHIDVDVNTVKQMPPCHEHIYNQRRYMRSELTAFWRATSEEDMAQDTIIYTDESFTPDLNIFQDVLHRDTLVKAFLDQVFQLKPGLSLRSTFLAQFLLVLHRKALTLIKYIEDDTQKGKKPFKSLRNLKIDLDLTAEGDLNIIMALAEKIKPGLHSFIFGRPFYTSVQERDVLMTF
UniProt P35637: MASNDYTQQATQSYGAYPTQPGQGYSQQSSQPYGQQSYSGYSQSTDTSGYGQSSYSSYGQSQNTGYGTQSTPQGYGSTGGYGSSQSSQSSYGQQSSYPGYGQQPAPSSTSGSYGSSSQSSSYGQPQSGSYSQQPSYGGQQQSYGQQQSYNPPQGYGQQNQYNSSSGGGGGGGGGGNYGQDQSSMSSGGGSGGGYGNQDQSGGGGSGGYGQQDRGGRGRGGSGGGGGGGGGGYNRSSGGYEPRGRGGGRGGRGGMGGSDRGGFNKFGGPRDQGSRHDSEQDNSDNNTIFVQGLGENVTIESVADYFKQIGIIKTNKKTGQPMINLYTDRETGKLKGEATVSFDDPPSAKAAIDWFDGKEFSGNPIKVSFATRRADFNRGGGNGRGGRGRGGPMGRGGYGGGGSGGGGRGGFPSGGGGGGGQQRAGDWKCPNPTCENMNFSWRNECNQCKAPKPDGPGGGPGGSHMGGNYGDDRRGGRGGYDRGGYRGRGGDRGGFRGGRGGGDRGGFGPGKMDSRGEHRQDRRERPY
UniProt Q9UHD9: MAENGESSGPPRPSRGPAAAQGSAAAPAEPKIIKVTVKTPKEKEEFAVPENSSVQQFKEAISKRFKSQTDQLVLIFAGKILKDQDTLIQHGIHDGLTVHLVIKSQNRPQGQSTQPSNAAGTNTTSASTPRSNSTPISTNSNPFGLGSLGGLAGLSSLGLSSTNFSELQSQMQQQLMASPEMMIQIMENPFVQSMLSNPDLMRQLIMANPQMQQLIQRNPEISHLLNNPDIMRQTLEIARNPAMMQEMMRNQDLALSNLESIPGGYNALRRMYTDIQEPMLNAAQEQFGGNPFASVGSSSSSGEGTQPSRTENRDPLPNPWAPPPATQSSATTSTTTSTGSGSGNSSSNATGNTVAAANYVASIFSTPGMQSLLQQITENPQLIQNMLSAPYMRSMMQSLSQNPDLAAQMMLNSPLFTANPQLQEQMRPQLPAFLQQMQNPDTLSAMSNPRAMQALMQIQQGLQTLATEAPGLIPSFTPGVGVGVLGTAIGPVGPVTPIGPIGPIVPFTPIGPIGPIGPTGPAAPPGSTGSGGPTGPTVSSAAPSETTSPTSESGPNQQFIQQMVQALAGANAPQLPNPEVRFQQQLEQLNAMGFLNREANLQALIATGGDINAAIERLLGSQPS
UniProt P62821: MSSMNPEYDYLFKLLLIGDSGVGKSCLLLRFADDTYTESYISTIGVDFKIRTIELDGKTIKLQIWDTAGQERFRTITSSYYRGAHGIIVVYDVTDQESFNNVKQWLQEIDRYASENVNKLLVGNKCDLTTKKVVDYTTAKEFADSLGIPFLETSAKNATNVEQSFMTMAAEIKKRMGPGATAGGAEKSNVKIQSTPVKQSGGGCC
UniProt O70133: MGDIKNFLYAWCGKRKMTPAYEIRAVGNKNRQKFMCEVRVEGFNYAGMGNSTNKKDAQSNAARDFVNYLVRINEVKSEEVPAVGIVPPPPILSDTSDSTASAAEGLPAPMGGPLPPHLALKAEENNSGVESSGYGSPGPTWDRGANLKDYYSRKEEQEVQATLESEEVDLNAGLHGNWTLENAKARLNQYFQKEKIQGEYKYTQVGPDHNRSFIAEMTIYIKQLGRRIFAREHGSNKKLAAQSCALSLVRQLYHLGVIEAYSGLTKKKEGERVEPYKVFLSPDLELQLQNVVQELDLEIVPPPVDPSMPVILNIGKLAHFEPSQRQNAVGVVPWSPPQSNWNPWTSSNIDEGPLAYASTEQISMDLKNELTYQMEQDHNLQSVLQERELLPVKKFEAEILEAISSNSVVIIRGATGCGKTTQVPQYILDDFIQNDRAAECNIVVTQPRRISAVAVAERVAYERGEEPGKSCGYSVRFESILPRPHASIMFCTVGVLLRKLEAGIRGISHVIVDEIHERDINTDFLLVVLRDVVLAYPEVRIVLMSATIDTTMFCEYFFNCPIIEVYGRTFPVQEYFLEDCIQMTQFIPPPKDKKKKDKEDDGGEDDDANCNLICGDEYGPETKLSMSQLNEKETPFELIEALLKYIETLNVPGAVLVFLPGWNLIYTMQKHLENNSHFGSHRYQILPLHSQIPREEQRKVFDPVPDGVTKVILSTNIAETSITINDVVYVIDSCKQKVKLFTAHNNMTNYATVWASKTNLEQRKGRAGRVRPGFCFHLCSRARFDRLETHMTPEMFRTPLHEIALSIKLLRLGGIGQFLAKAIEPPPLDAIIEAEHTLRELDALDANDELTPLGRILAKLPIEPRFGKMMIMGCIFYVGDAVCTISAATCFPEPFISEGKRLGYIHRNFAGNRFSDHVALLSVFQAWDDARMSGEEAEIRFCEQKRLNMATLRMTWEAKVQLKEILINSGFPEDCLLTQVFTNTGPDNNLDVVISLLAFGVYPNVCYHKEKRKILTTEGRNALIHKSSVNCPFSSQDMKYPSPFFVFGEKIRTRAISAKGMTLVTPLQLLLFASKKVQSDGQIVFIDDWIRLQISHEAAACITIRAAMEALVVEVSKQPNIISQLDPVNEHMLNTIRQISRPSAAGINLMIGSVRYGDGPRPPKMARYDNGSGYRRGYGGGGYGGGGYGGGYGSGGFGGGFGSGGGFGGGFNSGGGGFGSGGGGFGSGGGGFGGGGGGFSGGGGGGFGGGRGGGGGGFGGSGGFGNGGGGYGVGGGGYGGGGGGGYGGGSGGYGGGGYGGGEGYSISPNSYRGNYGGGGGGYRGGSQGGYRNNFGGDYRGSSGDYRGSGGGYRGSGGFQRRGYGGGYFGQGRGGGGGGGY
UniProt O88569: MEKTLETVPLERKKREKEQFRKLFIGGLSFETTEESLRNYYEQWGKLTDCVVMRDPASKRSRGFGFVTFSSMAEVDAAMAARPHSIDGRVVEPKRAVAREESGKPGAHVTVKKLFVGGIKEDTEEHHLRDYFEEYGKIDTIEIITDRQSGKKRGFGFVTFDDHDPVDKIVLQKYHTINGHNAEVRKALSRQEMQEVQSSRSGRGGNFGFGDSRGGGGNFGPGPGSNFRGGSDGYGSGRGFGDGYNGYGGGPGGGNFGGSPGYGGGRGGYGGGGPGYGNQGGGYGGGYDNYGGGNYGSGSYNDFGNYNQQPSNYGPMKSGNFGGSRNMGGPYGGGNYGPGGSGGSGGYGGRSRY
UniProt Q60737: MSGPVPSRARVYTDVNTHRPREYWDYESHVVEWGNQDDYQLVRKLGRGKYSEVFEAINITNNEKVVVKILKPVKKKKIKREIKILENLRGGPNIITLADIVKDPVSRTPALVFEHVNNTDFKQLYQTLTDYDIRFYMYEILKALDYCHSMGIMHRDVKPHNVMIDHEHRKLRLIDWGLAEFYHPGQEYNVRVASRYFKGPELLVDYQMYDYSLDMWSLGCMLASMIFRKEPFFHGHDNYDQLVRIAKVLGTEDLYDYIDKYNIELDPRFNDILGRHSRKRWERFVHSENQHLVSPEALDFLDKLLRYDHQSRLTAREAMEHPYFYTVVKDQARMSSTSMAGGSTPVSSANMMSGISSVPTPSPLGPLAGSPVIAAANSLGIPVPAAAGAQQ
UniProt Q6PHQ9: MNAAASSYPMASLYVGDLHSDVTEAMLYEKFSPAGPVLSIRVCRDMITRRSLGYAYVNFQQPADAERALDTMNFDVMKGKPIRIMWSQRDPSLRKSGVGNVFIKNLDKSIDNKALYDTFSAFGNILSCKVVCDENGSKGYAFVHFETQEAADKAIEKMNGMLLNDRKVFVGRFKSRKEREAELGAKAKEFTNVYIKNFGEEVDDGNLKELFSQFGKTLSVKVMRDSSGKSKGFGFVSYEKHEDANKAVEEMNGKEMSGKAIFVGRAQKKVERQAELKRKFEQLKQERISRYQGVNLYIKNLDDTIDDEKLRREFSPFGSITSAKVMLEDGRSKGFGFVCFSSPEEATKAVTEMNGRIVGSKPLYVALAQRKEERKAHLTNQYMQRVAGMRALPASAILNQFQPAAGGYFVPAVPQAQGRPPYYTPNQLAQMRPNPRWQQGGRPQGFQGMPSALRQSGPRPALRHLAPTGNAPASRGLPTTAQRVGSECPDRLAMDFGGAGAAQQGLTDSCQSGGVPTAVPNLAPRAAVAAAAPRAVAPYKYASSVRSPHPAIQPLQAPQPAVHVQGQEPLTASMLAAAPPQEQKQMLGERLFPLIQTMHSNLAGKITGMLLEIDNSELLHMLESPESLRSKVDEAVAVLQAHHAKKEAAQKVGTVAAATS
UniProt Q61701: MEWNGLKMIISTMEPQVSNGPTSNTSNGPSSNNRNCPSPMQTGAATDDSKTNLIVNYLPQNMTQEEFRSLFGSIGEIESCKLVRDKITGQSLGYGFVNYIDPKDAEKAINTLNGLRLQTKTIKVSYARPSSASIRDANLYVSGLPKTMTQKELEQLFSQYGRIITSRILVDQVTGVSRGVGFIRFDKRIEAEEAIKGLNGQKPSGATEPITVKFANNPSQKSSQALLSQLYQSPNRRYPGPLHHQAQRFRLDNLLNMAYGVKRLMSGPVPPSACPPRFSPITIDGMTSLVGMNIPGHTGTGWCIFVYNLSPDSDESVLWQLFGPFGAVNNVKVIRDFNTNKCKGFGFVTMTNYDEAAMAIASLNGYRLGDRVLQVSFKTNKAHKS
UniProt Q8K310: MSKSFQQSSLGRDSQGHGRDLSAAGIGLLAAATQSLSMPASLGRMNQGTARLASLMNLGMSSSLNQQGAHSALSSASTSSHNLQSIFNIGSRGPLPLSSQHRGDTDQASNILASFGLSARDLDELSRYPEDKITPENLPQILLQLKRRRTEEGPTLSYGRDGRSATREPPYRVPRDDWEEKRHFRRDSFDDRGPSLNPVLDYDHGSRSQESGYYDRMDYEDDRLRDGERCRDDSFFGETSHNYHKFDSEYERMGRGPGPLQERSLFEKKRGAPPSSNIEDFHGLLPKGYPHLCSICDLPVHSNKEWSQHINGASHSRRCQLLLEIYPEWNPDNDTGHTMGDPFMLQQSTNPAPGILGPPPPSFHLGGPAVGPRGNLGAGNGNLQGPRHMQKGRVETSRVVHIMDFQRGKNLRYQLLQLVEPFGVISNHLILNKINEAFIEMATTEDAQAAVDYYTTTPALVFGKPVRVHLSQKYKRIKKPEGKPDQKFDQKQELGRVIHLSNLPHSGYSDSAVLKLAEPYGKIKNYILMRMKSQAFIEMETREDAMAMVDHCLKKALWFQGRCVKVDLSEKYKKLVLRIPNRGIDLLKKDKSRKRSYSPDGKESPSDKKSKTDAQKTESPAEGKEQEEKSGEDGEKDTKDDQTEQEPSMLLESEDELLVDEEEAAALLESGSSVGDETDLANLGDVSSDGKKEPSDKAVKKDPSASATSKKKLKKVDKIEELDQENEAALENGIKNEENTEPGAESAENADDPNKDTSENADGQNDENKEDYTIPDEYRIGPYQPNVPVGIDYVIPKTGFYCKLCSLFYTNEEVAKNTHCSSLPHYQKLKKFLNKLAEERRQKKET

For hnRNPK (from UniProt P61979 1-463), which binding [1] is on record?
The binding was “binds”.

And the binding [2]?
Its binding is “binds”.

How did the binding [3] turn out when “TNFAIP3-interacting protein 1 (Tnip1) (from UniProt Q9WUU8 1-647)” was run?
Its binding is “binds”.

How did the binding (bioGFP-tagged C9orf72) turn out when “ubiquilin 1 (Ubqln1) (from UniProt Q8R317 1-582)” was run?
The binding was “no binding”.

Which results are given for “X-ray repair cross-complementing protein 6 (Xrcc6) (from UniProt P23475 1-608)”?
binding [4]: binds; binding [5]: binds

Which binding [4] does the source give for “DNA repair protein XRCC1 (Xrcc1) (from UniProt Q60596 1-631)” here?
The binding was “binds”.

What about the binding [5] of the same substance?
The binding was “binds”.

With “Casein kinase II subunit alpha (Csnk2a2) (from UniProt O54833 1-350)” as the substance, how does the binding [3] read?
Its binding is “binds”.

And the binding (bioGFP-tagged OPTN E478G)?
Its binding is “no binding”.

Which binding [6] does the source give for “Ras-related protein Rab-1A (Rab1a) (from UniProt P62821 1-205)” here?
The binding was “binds”.

What does the source list for Dhx9 (from UniProt O70133 1-1380)?
binding [4]: binds; binding [1]: binds; binding [2]: binds; binding [5]: binds

Which binding [4] does the source give for hnRNPA2B1 (from UniProt O88569 1-353) here?
The binding was “binds”.

And the binding (bioGFP-tagged C9orf72)?
The binding was “no binding”.

What about the binding [5] of the same substance?
Its binding is “binds”.

Which binding [6] does the source give for “Optn, endogenous (from UniProt Q8K3K8 1-584)” here?
The binding was “binds”.

Which binding [3] does the source give for “Pre-mRNA-splicing factor ATP-dependent RNA helicase DHX15 (Dhx15) (from UniProt O35286 1-795)” here?
The binding was “binds”.

And the binding (bioGFP-tagged OPTN E478G)?
Its binding is “no binding”.

For Upf1 (from UniProt Q9EPU0 1-1124), which binding [4] is on record?
The binding was “binds”.

And the binding [1]?
The binding was “binds”.

And the binding [2]?
The binding was “binds”.

And the binding [5]?
Its binding is “binds”.

With “Mitochondrial import inner membrane translocase subunit TIM50 (Timm50) (from UniProt Q9D880 22-353)” as the substance, how does the binding (bioGFP-tagged C9orf72) read?
Its binding is “binds”.

What does the source list for “Poly (ADP-ribose) polymerase 2 (Parp2) (from UniProt O88554 1-559)”?
binding [4]: binds; binding [5]: binds

Which results are given for “valosin-containing protein (Vcp) (from UniProt Q01853 1-806)”?
binding [3]: binds; binding (bioGFP-tagged OPTN E478G): no binding; binding [6]: binds

Which binding [3] does the source give for “Casein kinase II subunit alpha (Csnk2a1) (from UniProt Q60737 1-391)” here?
Its binding is “binds”.

And the binding (bioGFP-tagged OPTN E478G)?
The binding was “no binding”.

Which binding [4] does the source give for Pabpc4 (from UniProt Q6PHQ9 1-660) here?
Its binding is “binds”.

What about the binding [1] of the same substance?
Its binding is “binds”.

And the binding [2]?
Its binding is “binds”.

And the binding [5]?
The binding was “binds”.

For “X-ray repair cross-complementing protein 5 (Xrcc5) (from UniProt P27641 1-732)”, which binding [4] is on record?
The binding was “binds”.

What about the binding [5] of the same substance?
Its binding is “binds”.

For “cAMP-dependent protein kinase type I-alpha regulatory subunit (Prkar1a) (from UniProt Q9DBC7 1-381)”, which binding [3] is on record?
The binding was “binds”.

And the binding (bioGFP-tagged OPTN E478G)?
The binding was “no binding”.

How did the binding [4] turn out when “HuD (Elavl4) (from UniProt Q61701 1-385)” was run?
The binding was “binds”.

What about the binding [1] of the same substance?
The binding was “binds”.

What about the binding [2] of the same substance?
Its binding is “binds”.

What about the binding [5] of the same substance?
Its binding is “binds”.

How did the binding [4] turn out when “Histone H2AX (H2afx) (from UniProt P27661 1-143)” was run?
Its binding is “binds”.

And the binding [5]?
Its binding is “binds”.

What does the source list for Matrin3 (from UniProt Q8K310 1-846)?
binding [4]: binds; binding [1]: binds; binding [2]: binds; binding [5]: binds

“E3 ubiquitin-protein ligase Itchy (Itch) (from UniProt Q8C863 1-864)” was tested. Which binding [6] did it give?
Its binding is “binds”.

Parp1 (from UniProt P11103 1-1013) was tested. Which binding [4] did it give?
Its binding is “binds”.

And the binding [5]?
Its binding is “binds”.

Source: article PMC4947123
